# Primary screen of a compound library

Amino acid sequences for entries named in this document (tags omitted). Residues count along the entry.
UniProt P9WFT3, whole entry: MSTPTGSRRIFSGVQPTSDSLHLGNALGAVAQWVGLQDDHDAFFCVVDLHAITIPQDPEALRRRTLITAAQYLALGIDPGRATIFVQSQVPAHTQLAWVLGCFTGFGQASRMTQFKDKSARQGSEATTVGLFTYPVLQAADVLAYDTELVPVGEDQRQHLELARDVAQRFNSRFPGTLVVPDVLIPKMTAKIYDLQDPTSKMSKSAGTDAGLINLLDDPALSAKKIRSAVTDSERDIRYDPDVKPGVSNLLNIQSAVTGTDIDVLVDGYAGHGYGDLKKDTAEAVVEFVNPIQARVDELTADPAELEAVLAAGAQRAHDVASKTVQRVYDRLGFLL
UniProt P9WPC5, whole entry: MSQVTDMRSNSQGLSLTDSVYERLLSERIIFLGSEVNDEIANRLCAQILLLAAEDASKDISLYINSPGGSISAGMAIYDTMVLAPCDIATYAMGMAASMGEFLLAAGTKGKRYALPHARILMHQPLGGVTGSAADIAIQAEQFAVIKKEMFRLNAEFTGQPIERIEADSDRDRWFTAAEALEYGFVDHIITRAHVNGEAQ
UniProt P9WPC3, whole entry partner: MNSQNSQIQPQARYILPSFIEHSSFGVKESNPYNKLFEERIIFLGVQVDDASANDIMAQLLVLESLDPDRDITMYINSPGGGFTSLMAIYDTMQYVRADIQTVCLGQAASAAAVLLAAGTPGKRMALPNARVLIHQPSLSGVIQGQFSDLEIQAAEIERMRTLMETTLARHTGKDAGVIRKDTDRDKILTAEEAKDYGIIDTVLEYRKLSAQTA
UniProt I6X8D2, whole entry: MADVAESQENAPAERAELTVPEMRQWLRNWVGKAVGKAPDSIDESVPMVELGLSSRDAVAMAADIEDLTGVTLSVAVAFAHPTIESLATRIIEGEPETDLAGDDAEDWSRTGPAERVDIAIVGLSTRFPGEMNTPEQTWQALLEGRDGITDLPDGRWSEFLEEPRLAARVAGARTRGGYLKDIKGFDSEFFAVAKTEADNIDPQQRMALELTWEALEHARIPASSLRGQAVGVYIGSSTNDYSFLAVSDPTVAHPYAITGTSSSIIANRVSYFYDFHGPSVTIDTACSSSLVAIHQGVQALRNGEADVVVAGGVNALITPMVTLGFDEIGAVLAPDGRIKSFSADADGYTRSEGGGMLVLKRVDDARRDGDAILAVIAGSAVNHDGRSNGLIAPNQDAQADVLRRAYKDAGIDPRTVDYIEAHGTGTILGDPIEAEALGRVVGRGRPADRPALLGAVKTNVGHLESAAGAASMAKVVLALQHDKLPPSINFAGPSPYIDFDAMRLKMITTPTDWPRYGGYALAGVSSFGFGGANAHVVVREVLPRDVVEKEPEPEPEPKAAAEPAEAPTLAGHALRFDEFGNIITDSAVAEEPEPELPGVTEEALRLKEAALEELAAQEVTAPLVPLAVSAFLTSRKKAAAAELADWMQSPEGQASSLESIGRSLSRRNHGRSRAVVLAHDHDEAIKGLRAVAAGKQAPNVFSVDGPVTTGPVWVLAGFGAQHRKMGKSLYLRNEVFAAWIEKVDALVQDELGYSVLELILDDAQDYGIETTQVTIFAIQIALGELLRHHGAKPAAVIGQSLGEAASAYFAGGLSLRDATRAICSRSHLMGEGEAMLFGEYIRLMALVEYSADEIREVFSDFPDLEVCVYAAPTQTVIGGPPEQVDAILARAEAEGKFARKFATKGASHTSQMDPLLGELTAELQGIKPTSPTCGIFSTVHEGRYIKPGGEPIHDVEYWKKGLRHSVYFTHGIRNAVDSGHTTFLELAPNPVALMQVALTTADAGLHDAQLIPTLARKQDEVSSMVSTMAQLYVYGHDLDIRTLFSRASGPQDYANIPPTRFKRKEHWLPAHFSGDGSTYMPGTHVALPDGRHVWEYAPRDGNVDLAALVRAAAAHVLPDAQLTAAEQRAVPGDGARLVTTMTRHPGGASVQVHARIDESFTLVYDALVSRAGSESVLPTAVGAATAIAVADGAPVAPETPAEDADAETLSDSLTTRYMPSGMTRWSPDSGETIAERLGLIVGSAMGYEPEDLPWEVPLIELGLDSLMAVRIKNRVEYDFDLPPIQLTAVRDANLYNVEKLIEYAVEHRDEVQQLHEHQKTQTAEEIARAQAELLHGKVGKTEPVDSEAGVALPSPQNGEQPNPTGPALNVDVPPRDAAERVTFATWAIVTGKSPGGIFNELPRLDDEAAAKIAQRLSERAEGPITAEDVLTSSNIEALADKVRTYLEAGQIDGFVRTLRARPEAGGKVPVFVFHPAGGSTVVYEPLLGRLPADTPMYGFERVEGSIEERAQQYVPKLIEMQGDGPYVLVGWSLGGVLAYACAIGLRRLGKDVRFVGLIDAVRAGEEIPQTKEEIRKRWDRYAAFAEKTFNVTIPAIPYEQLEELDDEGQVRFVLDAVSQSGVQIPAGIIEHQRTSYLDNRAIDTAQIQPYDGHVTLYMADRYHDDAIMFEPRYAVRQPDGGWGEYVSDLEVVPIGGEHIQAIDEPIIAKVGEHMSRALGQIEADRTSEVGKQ
UniProt Q8IDJ8, 1-583: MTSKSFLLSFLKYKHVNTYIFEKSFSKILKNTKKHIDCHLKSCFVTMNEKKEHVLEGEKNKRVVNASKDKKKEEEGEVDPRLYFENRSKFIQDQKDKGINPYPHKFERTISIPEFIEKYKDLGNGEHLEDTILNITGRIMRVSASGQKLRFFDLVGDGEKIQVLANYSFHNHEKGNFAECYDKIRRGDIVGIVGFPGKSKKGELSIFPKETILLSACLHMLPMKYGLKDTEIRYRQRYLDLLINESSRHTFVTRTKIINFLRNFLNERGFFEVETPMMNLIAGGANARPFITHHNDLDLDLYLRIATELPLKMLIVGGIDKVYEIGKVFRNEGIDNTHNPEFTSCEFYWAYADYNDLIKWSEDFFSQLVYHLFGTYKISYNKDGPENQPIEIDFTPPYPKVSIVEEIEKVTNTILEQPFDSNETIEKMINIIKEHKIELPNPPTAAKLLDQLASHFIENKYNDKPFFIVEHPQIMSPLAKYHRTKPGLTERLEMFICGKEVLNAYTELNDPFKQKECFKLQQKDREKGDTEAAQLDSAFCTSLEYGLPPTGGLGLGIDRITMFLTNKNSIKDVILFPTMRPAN

Each number is a percent effect as filed. The record does not define 0% and 100%; most values in the screen are far below 50% and negative numbers occur (in some assays of this library far below -100). The compounds are a random part of those screened. A dash means the value is not listed here; it may have been measured.

MtTrpRS: 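Tryptophan-tRNA ligase, Mycobacterium tuberculosis (UniProt P9WFT3). Enzyme assay of tryptophanyl-tRNA synthetase; the read-out is not stated. Tested at 10 µM. Higher most likely means stronger inhibition; the record gives no direction and few retests gave an IC50. Size under these conditions: about 65,000 compounds, about 64 of them at 50% or above in at least one test.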
ClpP1P2: 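ClpP1P2, Mycobacterium tuberculosis (UniProt P9WPC5 and UniProt P9WPC3). Protease assay of ClpP1P2, read by the AMC dye that it sets free. Tested at 50 µM. Higher reads as stronger inhibition, judged from the few compounds that gave an IC50. Most other retested compounds had strongly negative values. About 69,000 compounds were tested under these conditions; 0.015% (about 10) showed 50% or more at least once.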
Pks13 thioesterase: 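Polyketide synthase Pks13, Mycobacterium tuberculosis (UniProt I6X8D2). Enzyme assay of the thioesterase domain of polyketide synthase 13; the read-out is not stated. Compounds at 30 µM. The record gives no direction; the compounds picked for IC50 retests had high values, so higher reads as stronger inhibition. Size under these conditions: about 67,000 compounds, about 300 of them at 50% or above in at least one test.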
PfKRS1: 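Enzyme assay of the cytosolic lysyl-tRNA synthetase in 384-well plates, read by luminescence. Target: Lysine-tRNA ligase, Plasmodium falciparum 3D7 (UniProt Q8IDJ8). Tested at 30 µM. Direction is inferred from only a few compounds that gave an IC50; most scored high, so higher reads as stronger inhibition. Size under these conditions: about 69,000 compounds, about 49 of them at 50% or above in at least one test.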

| compound | MtTrpRS | ClpP1P2 | Pks13 thioesterase | PfKRS1 |
|---|---|---|---|---|
| `Cc1noc(C)c1C(=O)N1CCCC1(C)C(=O)NC1CCCC1` (configuration not stated) | -5.639% | 2.786% | -6.596% | 0.7264% |
| `CCCc1cc(C(=O)Nc2nc(SC)ns2)n(C)n1` | -1.432% | 3.966% | -5.941% | -0.4271% |
| `Cn1nccc1C(=O)Nc1cc(C(F)(F)F)c[nH]c1=O` | -0.936% | -21.36% | -15.69% | -0.9473% |
| `CN1CCN(CC(C)(C)C)CC1CCO` (configuration not stated) | -1.342% | -34.76% | 11.94% | 4.288% |
| `CCc1cc(N[C@H]2CCC[C@H]2O)n2nccc2n1` | -0.1679% | 9.166% | -15.08% | 1.972% |
| `CN1CCN(C2CCN(CCOc3ccccc3F)CC2)C1=O` | -2.24% | -12.41% | -21.43% | 0.7881% |
| `COCCN1CCC(CN(CC2CCCO2)C(=O)C2CCOCC2)CC1` (configuration not stated) | 5.136% | -6.262% | -8.139% | 2.965% |
| `CC(=O)N1CCCC1c1nc(CN(C)C(=O)C(C)C)cc(N(C)C)n1` (configuration not stated) | -4.274% | -12.82% | 38.01% | 1.857% |
| `CC(C)n1nc2c(cc1=O)CN(Cc1nc(-c3ccoc3)no1)CC2` | 7.834% | 0.1938% | 14.83% | -3.156% |
| `O=C(Nc1cc(C2CCOCC2)[nH]n1)c1ccc(Cl)cn1` | -1.883% | -4.708% | -2.424% | 3.98% |
| `CN(C(=O)c1ccccc1N(C)S(C)(=O)=O)c1ccc(C(C)(C)C)cc1` | -2.761% | -5.24% | -47.14% | 0.6262% |
| `Cc1nc(CN(C)C2CCN(Cc3nc4ccccc4n3C)C2)no1` (configuration not stated) | 0.4172% | -61.82% | -0.4409% | -1.04% |
| `Cc1cc(Br)oc1C(=O)N1CCC(N(C)C)CC1` | -1.958% | 7.526% | 8.397% | 1.368% |
| `Cn1ccc(NC(=O)CN2C[C@H]3CC[C@@H]2CN(Cc2ccccn2)C3)n1` | 0.3549% | -23.11% | -6.775% | -0.147% |
| `CCCS(=O)(=O)N1CCc2c(COCC)cncc2C1` | -2.186% | 4.039% | -23.72% | 4.574% |
| `Cc1cc(C2CCCN2c2ncc(C(N)=O)cc2Cl)no1` (configuration not stated) | -2.468% | 8.781% | -65.42% | 9.482% |
| `Cc1nn(C)cc1S(=O)(=O)N(CCc1ccccc1)Cc1ccn(C)n1` | 2.202% | -13.53% | -25.98% | 3.86% |
| `CN1CCCN(c2nc3c(cnn3C(C)(C)C)c(=O)[nH]2)CC1` | 2.082% | 1.34% | -3.705% | -5.119% |
| `O=C(Nc1ccccn1)C1CC(=O)N(Cc2ccccn2)C1` (configuration not stated) | -12.18% | 5.056% | -26.61% | -1.335% |
| `N#Cc1ccc(OCC(O)CN2CCC(c3ccn[nH]3)CC2)cc1` (configuration not stated) | -4.814% | -19.64% | -0.7426% | 1.421% |
| `Cc1cc(C(=O)N2CCn3cc(CN4CCOCC4)nc3C2)no1` | 0.9382% | -9.832% | 7.468% | 1.411% |
| `CN(C)S(=O)(=O)c1ccc(OCCNCCn2cccn2)cc1` | -0.09747% | 1.166% | -18.44% | -3.581% |
| `Cc1cc(C(=O)N(C)C2CCS(=O)(=O)C2)c2ccc(F)cc2n1` (configuration not stated) | 0.9031% | 6.349% | -40.47% | -4.348% |
| `O=C1CC(c2cccnc2)c2c(c(C(=O)O)cn2-c2ccccc2)N1` (configuration not stated) | -2.412% | 9.2% | -23.55% | 12.7% |
| `O=C(C1CC1)N1CCCCCC1C1CCN(c2ncccn2)CC1` (configuration not stated) | -2.874% | -3.126% | 3.313% | 3.823% |
| `O=C(Nc1cn[nH]c1)N1CCCCCC1c1ccncc1` (configuration not stated) | 2.365% | 0.6682% | -3.772% | 1.623% |
| `NC(=O)Cn1cc(NC(=O)N2CCN(c3ccc(F)cc3)CC2)cn1` | 7.8% | -13.05% | 0.7406% | -0.974% |
| `CN(C)C(=O)NCc1nnc2n1CCN(Cc1cccs1)C2` | 7.461% | -2.503% | -21.11% | 2.373% |
| `CC1(c2[nH]ncc2C(N)=O)CCN(c2ncccn2)CC1` | 17.06% | -12.66% | -9.793% | -2.292% |
| `CCOc1ccccc1OC1CCN(C(=O)c2csnn2)CC1` | -5.844% | -9.55% | -8.883% | 0.8172% |
| `CNC(=O)C(C)CN(C)C(=O)Nc1cc(F)cc(Br)c1` (configuration not stated) | -1.287% | -13.97% | -17.06% | -0.4026% |
| `CC(CNC(=O)c1cn(-c2ccccc2)nn1)Cn1cccn1` (configuration not stated) | 4.552% | -2.039% | -30.04% | 1.867% |
| `Cn1ccc(C2CCCCCN2C(=O)c2cccnc2)n1` (configuration not stated) | -9.117% | -13.24% | 7.145% | 1.144% |
| `NCCc1nc(N[C@@H](CO)c2ccccc2)c2ccccc2n1` | 2.614% | -6.064% | -17.09% | 2.888% |
| `NC(=O)N1CCCN(C2CCCCc3ccccc32)CC1` (configuration not stated) | -5.814% | 4.012% | -12.47% | 6.014% |
| `Cc1c(C2N3C[C@]4(C(C)C)CN2C[C@](C(C)C)(C3)C4=O)[nH]c(=O)[nH]c1=O` (some centres not stated) | -0.4428% | -10.96% | -4.663% | -0.7125% |
| `CC(C)(C)C(=O)N1CCCC1c1cc(CO)[nH]n1` (configuration not stated) | -0.3264% | -7.57% | -5.45% | 0.8171% |
| `CCc1cnc(N)nc1N1CCCC2(CCOCC2)C1` | -4.941% | -15.29% | -8.423% | 7.058% |
| `CC(C(=O)NCCCN1CCOCC1)n1cncn1` (configuration not stated) | 4.537% | 20.4% | -9.865% | -1.931% |
| `Cc1nn(C)c2c(=O)n(CC(=O)NCC3CCCO3)ccc12` (configuration not stated) | 0.311% | -5.182% | -2.218% | 3.677% |
| `Cc1nc(C)n(C2CCCN(C(=O)CCCOc3ccccc3)C2)n1` (configuration not stated) | -2.318% | 3.725% | - | 0.05796% |
| `O=C(O)c1ccccc1-n1cnc(CN2CCCc3ccccc32)c1` | -5.355% | -9.425% | 19.28% | 1.645% |
| `CNS(=O)(=O)Cc1ccc(CNC(=O)Nc2cn[nH]c2)cc1` | 0.236% | 10.69% | -28.59% | 17.03% |
| `OC1(CN2CCCCC2)CCN(c2ccc(C(F)(F)F)cn2)C1` (configuration not stated) | -5.638% | 12.23% | -38.16% | 0% |
| `c1csc(CN2CCC3(CC2)CCN(CC2CCOCC2)C3)n1` | 1.762% | -3.572% | -3.493% | 1.173% |
| `CC(=O)N1CCN(C(=O)NCc2ccccc2Cn2ccnc2)CC1` | -1.018% | -6.801% | -20.69% | 0.3511% |
| `CCc1noc(C(C)N2CCN(Cc3nnc(C4CC4)o3)CC2)n1` (configuration not stated) | 1.436% | 0.9455% | -1.466% | 0.3709% |
| `CCC(=O)Nc1cccc(OCC(=O)N(C)CCCC2CCCO2)c1` (configuration not stated) | 3.778% | -13.19% | -18.21% | 2.867% |
| `CCNC(=O)CNCc1c(C(C)C)nn(C)c1N1CCOCC1` | -2.674% | -13.16% | -12.95% | 2.389% |
| `Cc1nccn1CCCC(=O)N1CCC(N(C)c2cccnn2)CC1` | -4.496% | -4.949% | 19.51% | 1.681% |
| `CCc1ccccc1OC1CN(C(=O)c2sccc2N)C1` | -2.741% | 2.711% | 9.24% | 8.64% |
| `CN(C)C1(CNc2nccc(-c3cnn(C)c3)n2)CCSC1` (configuration not stated) | -5.088% | -0.7795% | 12.28% | 1.517% |
| `Cc1nc(N2CCOCC2)nc2c1CCN(C(=O)C1CC1)CC2` | -0.4149% | 2.931% | 7.607% | 4.783% |
| `Cc1cnc(C(=O)N2C[C@H]3CN(Cc4nccs4)C[C@H]3C2)cn1` | -0.4122% | 7.944% | -10.35% | -10.2% |
| `CSC1(CNC(=O)c2ccn(-c3ccccc3F)n2)CCOCC1` | -6.505% | -3.345% | -31.98% | -2.768% |
| `CCc1nnc2n1CCN(C(=O)c1cc3cc(F)ccc3[nH]1)C2` | 1.998% | 1.925% | -13.07% | 5.785% |
| `CCCc1nc(C(=O)N[C@H]2COC[C@@H]2N2CCN(C)CC2)cs1` | 3.936% | 7.97% | -3.115% | 5.014% |
| `COc1cc2c(cc1OC)CN(C(=O)Cn1nc(C)cc1C)CC2` | 8.264% | 5.742% | -16.82% | 13.74% |
| `CN1CCCN(C(=O)NCc2cc(Br)cs2)CC1` | 2.612% | -18.54% | -15.09% | -0.7913% |
| `c1cnn(CC2CCCCN2c2ncnc3sccc23)c1` (configuration not stated) | -3.908% | -21.21% | -13.1% | 0.3337% |
| `OC(COCc1ccc(Cl)cc1)CN1CCC(c2ccn[nH]2)CC1` (configuration not stated) | 1.81% | 4.864% | -31.9% | 9.137% |

The last 5 entries again:

compound,MtTrpRS,ClpP1P2,Pks13 thioesterase,PfKRS1
CCCc1nc(C(=O)N[C@H]2COC[C@@H]2N2CCN(C)CC2)cs1,3.936%,7.97%,-3.115%,5.014%
COc1cc2c(cc1OC)CN(C(=O)Cn1nc(C)cc1C)CC2,8.264%,5.742%,-16.82%,13.74%
CN1CCCN(C(=O)NCc2cc(Br)cs2)CC1,2.612%,-18.54%,-15.09%,-0.7913%
c1cnn(CC2CCCCN2c2ncnc3sccc23)c1 (configuration not stated),-3.908%,-21.21%,-13.1%,0.3337%
OC(COCc1ccc(Cl)cc1)CN1CCC(c2ccn[nH]2)CC1 (configuration not stated),1.81%,4.864%,-31.9%,9.137%

From ChEMBL document CHEMBL3988442, “University of Dundee, Small-Polar-MMV Screening Library” (2021).